Three substances from patent US7371524B2, “Substituted azaporphyrins as fluorescence labels” (priority 2003, dated 2008) can be followed below.

Data set [1] deals with Fetal Bovine Serum. The data set can be described thus: Fluorescence intensity and polarization of free dye in fetal bovine serum (nonspecific binding). To be noted: 25 μl whole serum added to 1 ml BBS. Here is the method:
(§1) The contrast between the dye structure of the present invention and those structures of previous attempts to use phthalocyanines (Pc's) as labels for fluorescence probes can be appreciated by a test format for NSB in which the free dye is added to serum and the resulting polarization or anisotropy is measured. An increase in polarization results if nonspecific binding occurs because the increase in molecular mass upon binding results in a decrease in the rate of rotary Brownian motion.
(§2) In Table 1 the performance of any one dye can be judged by the changes in fluorescence intensity (I), and/or the changes in polarization (mp, milli-polarization units) as one proceeds horizontally across the table. The “perfect” fluorescence label would have the same values for each of these parameters regardless of the solvent composition.
Abbreviations: mp: […]; TDx Buffer: Commercial buffer used in fluorescence polarization assays; Pc: phthalocyanine; BBS: Borate buffered saline (0.25 M NaCl, 0.0232 M boric acid and 0.00179 M sodium tetraborate. The pH is finally adjusted to 8.0+/−0.05 with 1M NaOH). When serum was tested, 25 μl of whole serum was added to 1 ml of BBS (containing 25 μl of the dye already added). Note that the relative concentrations of the various fluorophores is not known so that comparisons of fluorescence intensities are meaningful only when proceeding in a horizontal direction. An alternative to BBS for manipulating LJB-3 in aqueous solutions is borate buffered KCl (BBKCl) which is made by mixing 33.1 ml of 0.70 M boric acid, 4.0 ml of 0.50 M K2B4O7, 75 ml of 4.0 M KCl and water to make 1 liter: pH ca. 8.1.
(§3) Fluorescence measurements: These were made in a transient state polarization fluorometer (FAST-1, Hyperion, Inc. Miami, Fla.)

For data set [2], the system named is Normal Human Serum. The data set is described as follows: Fluorescence intensity and polarization of free dye in normal human serum (nonspecific binding). To be noted: 25 μl whole serum added to 1 ml BBS. Here is the method: as §1, §2
Comparison of the behavior in normal human serum to that in glycerol is informative since this provides a measure of the loss of potential polarization change by NSB in the presence of serum. For the five dyes listed the values of the differences between the polarization in glycerol and that in normal human serum are: 60.4, 73.6, 103, 12, 61 and 44.1. These differences show a dramatic beneficial effect of Si as a central atom and also point to LJB-3 as the best choice of the group. The ratio of intensities in glycerol divided by that in normal human serum also is indicative. […]
Abbreviations: mp: […]; TDx Buffer: Commercial buffer used in fluorescence polarization assays; Pc: phthalocyanine; BBS: Borate buffered saline (0.25 M NaCl, 0.0232 M boric acid and 0.00179 M sodium tetraborate. The pH is finally adjusted to 8.0+/−0.05 with 1M NaOH). […] Note that the relative concentrations of the various fluorophores is not known so that comparisons of fluorescence intensities are meaningful only when proceeding in a horizontal direction. […]
as §3

Consider DiphosphatoSidicarboxyphthalocyanine, for which, in data set [1], the “Fluorescence Intensity (I), Fetal Bovine Serum” value (“Fluorescence Intensity (I)” below) stood at 1020 and the “Polarization (mp), Fetal Bovine Serum” value worked out at 64.9 mp. Besides, the “Polarization (mp), Normal Human Serum” value in data set [2] was 60.9 mp.
Regarding “Hydroxyaluminumphthalocyaninetrisulfonate [Al Pc trisulfonate, reference compound]”, in data set [1], the “Fluorescence Intensity (I)” value is 533 and the “Polarization (mp), Fetal Bovine Serum” value was found to be 60.7 mp. Also, in data set [2], the “Polarization (mp), Normal Human Serum” value was 224 mp.
With “dihydroxy dicarboxy silicon phthalocyanine sulfonate [LJB-3]”, in data set [1], the “Fluorescence Intensity (I)” value is 716 and the “Polarization (mp), Fetal Bovine Serum” value turned out to be 38.7 mp. The “Polarization (mp), Normal Human Serum” value in data set [2] is on record as 95.7 mp.
